Assay [1] addresses biotinylated recombinant human TNFRSF25-His tagged (Acro #TN5-H52H3) (human) (UniProt Q93038). In words: MSD competition (upper panel); antibody on TNFRSF25-coated plate, wash, then TL1A-rabbit Fc at 0.4 ug/ml, sulfo-tag anti-rabbit detection.
Assay [2] has the same target. In words: BLI (Octet Red 96e); biotinylated TNFRSF25-His on streptavidin sensor, 600 s association, 600 s dissociation. (BLI is a label-free optical method that tracks binding on a fibre tip over time.)
For assay [3] the target is unchanged. Nature of the assay: MSD plate binding; biotinylated recombinant human TNFRSF25 on streptavidin plate, antibody in solution, sulfo-tag anti-human Fc.
For assay [4] the target is unchanged. Nature of the assay: MSD competition; scFv supernatant serially diluted on TNFRSF25-coated plate, then TL1A added and the remaining TL1A detected.
Assay [5] shares this target. Nature of the assay: MSD plate binding; TNFRSF25 precoated, unpurified scFv supernatant in 2-fold serial dilutions, detection of the C-terminal myc tag.

The chains behind the UniProt entries cited, without tags or fusion partners. Residues count along the entry.
UniProt Q93038, residues 25-199: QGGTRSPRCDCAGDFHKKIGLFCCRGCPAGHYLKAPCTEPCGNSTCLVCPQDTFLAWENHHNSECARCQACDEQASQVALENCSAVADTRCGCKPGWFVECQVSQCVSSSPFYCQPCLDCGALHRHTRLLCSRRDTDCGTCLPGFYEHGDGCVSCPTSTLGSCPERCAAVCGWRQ

No constants are given. Whether binding was seen depends on the method and setting. Some binding calls cover weakened binding; strength is not graded here.

B1: NH24 (whole antibody) (antibody, human IgG1, kappa, V domains shown)
VH: EVQLVESGGGSVQPGGSLRLSCAASGFTFSSYGMSWIRQAPGKGLEWISYISSSGGHTYYADSVKGRFTISRDNAKNSLYLQMNSLRAEDTAVYYCARGSGSFDYWGQGTLVTVSS
VL: DIVMTQSPSSLSASVGDRVTITCQASQDITNYLSWYQQKPGKAPKLLISDASNLETGIPSRFSGSGSGTDFTFTISSLQPEDIATYYCQQYDTLPITFGQGTRLEIKR
Turning to B1, the binding entry in assay [1], in assay [2] and in assay [3] was “binds” throughout.

B2: NH46 (whole antibody) (antibody, human IgG1, kappa, V domains shown)
VH: QVQLVQSGSEVKKPGASVRVSCKVSGSTVKELSMHWVRQAPGKGLEWMGGYDPEDGESIFAQKFQGRVNMTEDRSTDTAYMELSSLRSEDTAVYYCATDLNWEDAFDVWGQGTMVTVSS
VL: QSVLTQPPSVSAAPGQKVTISCSGSGSNIGNYYVAWYQQFPGTAPKLLIYDNNKRPSGIPDRFSGSKSGTSATLGITGLQTGDEADYYCGTWDTSLTAGDIYVFGTGTKVTVLR
In the case of B2, the binding entry in assay [1], in assay [2] and in assay [3] was “binds” each time.

B3: NH24-35 (scFv, not shown: small tags and cut ends)
scFv: EVQLVESGGGSVQPGGSLRLSCAASGFTFSSYGMSWIRQAPGKGLEWVSYISSSGGHTYYADSVKGRFTISRDNAKNSLYLQMNSLRAEDTAVYYCARYSGAFDHWGQGTLVTVSSGGRGSGGGGSGSGGSDIVMTQSPSSLSASVGDRVTITCQASQDITNYLSWYQQKPGKAPKLLINDASNLETGVPSRFSGSGSGTDFTFTISSLQPEDIATYYCQQYDTLPITFGQGTRLEIKR
As for B3, the binding entry in assay [4] and in assay [5] was “binds” throughout.
